Some results were stated once for a whole list of compounds, not compound by compound.
Target: T1, CD74 (Mus musculus, UniProt P04441)
T1 construct: DR*1501-Tg splenocytes were biotinylated and lysed as described above and CD74 was immunoprecipitated overnight; endogenous in cells; host or cells: splenocytes of DR*1501-Tg mice (surface-biotinylated, lysed in 1% CHAPS/TEN; CD74 captured on Protein L / ln-1 beads)
T1 sequence (P04441 1-215 isoform P04441-2): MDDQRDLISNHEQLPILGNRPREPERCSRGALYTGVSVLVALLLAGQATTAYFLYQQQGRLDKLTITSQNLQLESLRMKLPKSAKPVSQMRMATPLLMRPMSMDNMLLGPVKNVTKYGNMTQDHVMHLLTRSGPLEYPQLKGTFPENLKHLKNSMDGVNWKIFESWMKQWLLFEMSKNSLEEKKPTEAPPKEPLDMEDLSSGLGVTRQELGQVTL
Assay: Direct binding of FITC-labeled constructs to immuno-adsorbed CD74
Conditions: FITC-labeled ligand, immuno-adsorbed CD74, 4 hours at 4° C., 1% CHAPS; read-out: CD74 One binding site KD
Protocol: In order to test ligand binding to the separate components of the RTL receptor, DR*1501-Tg splenocytes were biotinylated and lysed as described above and CD74 was immunoprecipitated overnight at 4° C. with the anti-CD74 monoclonal antibody ln-1. Immune complexes (Protein L-beads/ln-1/CD74) were analyzed for their ability to bind FITC-labeled pDR2RTL constructs by performing a direct binding saturation with increasing concentration of the different constructs (0 to 10 nM). Binding was carried out for 4 hours at 4° C. with gentle shaking and in the presence of 1% CHAPS in TEN buffer. Afterwards the complexes were washed thoroughly with 1% CHAPS/TEN and once with only TEN buffer to remove excess detergent. Bound proteins were eluted in 2% SDS electrophoresis sample buffer at 90° C. for 6 to 8 minutes and beads were sedimented. After the supernatant was collected and proteins separated using 10-20% SDS-PAGE, the gel was scanned for FITC chromophore and quantified by densitometry. Ligand concentration was plotted versus the fluorescence intensity of the bands and the curve generated was fit to one or two binding sites with the GraphPad Prism® Software. […] Direct binding to saturating concentrations of the pDR2 constructs was carried out and analyzed as described above.

B1: DR-α1: construct comprising DR-α1 domain alone (with no DR2-β1 domain or peptide) (protein)
chain: IKEEHVIIQAEFYLNPDQSGEFMFDFDGDEIFHVDMAKKETVWRLEEFGRFASFEAQGALANIAVDKANLEIMTKRSNYTPITN
- Kd: 2.9 to 4.5 nM

Source: patent publication US20150044245A1, “PARTIAL MHC CONSTRUCTS AND METHODS OF USE” (Oregon Health & Science University, priority 2012, published 2015)
